Like-named read-outs stand apart in the source and are kept apart here.
Key:
[1] = system: ZF4 (fibroblasts) cell line; test: CFDA endpoint of AB/CFDA/NR multiplex, membrane stability; format: cell-based, zebrafish (Danio rerio); conditions: Danio rerio, Fibroblast
[2] = system: ZF4 (fibroblasts) cell line; test: BCA assay (MTS/BCA multiplex), protein amount; format: cell-based, zebrafish (Danio rerio); conditions: Danio rerio, Fibroblast
[3] = system: ZF4 (fibroblasts) cell line; test: alamarBlue (AB) endpoint of AB/CFDA/NR multiplex, cellular respiration; format: cell-based, zebrafish (Danio rerio); conditions: Danio rerio, Fibroblast
[4] = system: ZF4 (fibroblasts) cell line; test: ATP assay (ATP/LDH multiplex), ATP metabolism; format: cell-based, zebrafish (Danio rerio); conditions: Danio rerio, Fibroblast
[5] = system: ZF4 (fibroblasts) cell line; test: Neutral red, fluorescence (NRf), AB/CFDA/NR multiplex, lysosome stability; format: cell-based, zebrafish (Danio rerio); conditions: Danio rerio, Fibroblast
[6] = system: ZFL (hepatocytes) cell line; test: cells; format: cell-based, zebrafish (Danio rerio); conditions: Danio rerio, Hepatocyte
[7] = system: ZFL (hepatocytes) cell line; test: cells; format: cell-based, zebrafish (Danio rerio); conditions: Danio rerio, Hepatocyte; remark: listed apart in the source
[8] = system: diverse mammalian cell assay results; design: method as in https://comptox.epa.gov/dashboard/; conditions: COMPTOX; ref https://comptox.epa.gov/dashboard/; read-out: median AC50; cited from earlier work
ZF4 and ZFL cell lines = test: Cytotoxicity assays, all endpoints, both cell lines (mean/range); format: cell-based, zebrafish (Danio rerio); conditions: 48 h
[9] = system: ZF4 (fibroblasts) cell line; test: MTS assay (MTS/BCA multiplex), NAD(P)H metabolism; format: cell-based, zebrafish (Danio rerio); conditions: Danio rerio, Fibroblast
[10] = system: ZFL (hepatocytes) cell line; test: cells; format: cell-based, zebrafish (Danio rerio); conditions: Danio rerio, Hepatocyte; remark: listed apart in the source
[11] = system: ZFL (hepatocytes) cell line; test: cells; format: cell-based, zebrafish (Danio rerio); conditions: Danio rerio, Hepatocyte; remark: listed apart in the source
[12] = system: ZFL (hepatocytes) cell line; test: cells; format: cell-based, zebrafish (Danio rerio); conditions: Danio rerio, Hepatocyte; remark: listed apart in the source
[13] = system: ZF4 (fibroblasts) cell line; test: Neutral red, absorbance (NRa), AB/CFDA/NR multiplex, lysosome stability; format: cell-based, zebrafish (Danio rerio); conditions: Danio rerio, Fibroblast
[14] = system: ZFL (hepatocytes) cell line; test: cells; format: cell-based, zebrafish (Danio rerio); conditions: Danio rerio, Hepatocyte; remark: listed apart in the source
[15] = system: ZFL (hepatocytes) cell line; test: cells; format: cell-based, zebrafish (Danio rerio); conditions: Danio rerio, Hepatocyte; remark: listed apart in the source

`COCC(=O)Nc1cc(Sc2ccccc2)ccc1N/C(=N\C(=O)OC)NC(=O)OC` [Febantel, febantel] showed an IC50 ([1]; CFDA - ZF4, log10 of IC50, read-out: LogIC50 (converted)) of 130 µM, an IC50 ([1]; CFDA - ZF4, read-out: IC50) of 130 µM and an IC50 ([1]; ZF4, 48 h exposure, nominal, log10, read-out: logIC50 (log10 IC50;nom) CFDA (converted)) of 129 µM. For the same compound, the IC50 ([1]; ZF4, 48 h exposure, nominal, read-out: IC50;nom CFDA) was 130 µM, the IC50 ([2]; BCA - ZF4, log10 of IC50, read-out: LogIC50 (converted)) was 390 µM and the IC50 ([2]; BCA - ZF4, read-out: IC50) was 390 µM. It also gave an IC50 ([2]; ZF4, 48 h exposure, nominal, log10, read-out: logIC50 (log10 IC50;nom) BCA (converted)) of 389 µM, an IC50 ([2]; ZF4, 48 h exposure, nominal, read-out: IC50;nom BCA) of 390 µM and an IC50 ([3]; AB - ZF4, log10 of IC50, read-out: LogIC50 (converted)) of 66.1 µM. For the same compound, the IC50 ([3]; AB - ZF4, read-out: IC50) was 66.1 µM, the IC50 ([3]; ZF4, 48 h exposure, nominal, log10, read-out: logIC50 (log10 IC50;nom) AB (converted)) was 66.1 µM and the IC50 ([3]; ZF4, 48 h exposure, nominal, read-out: IC50;nom AB) was 66.1 µM. For the same compound, the IC50 ([4]; ATP - ZF4, log10 of IC50, read-out: LogIC50 (converted)) was 35.9 µM, the IC50 ([4]; ATP - ZF4, read-out: IC50) was 35.9 µM and the IC50 ([4]; ZF4, 48 h exposure, nominal, log10, read-out: logIC50 (log10 IC50;nom) ATP (converted)) was 35.5 µM. For the same compound, the IC50 ([4]; ZF4, 48 h exposure, nominal, read-out: IC50;nom ATP) was 35.9 µM, the IC50 ([5]; NR-fluo - ZF4, log10 of IC50, read-out: LogIC50 (converted)) was 34.3 µM and the IC50 ([5]; NR-fluo - ZF4, read-out: IC50) was 34.3 µM. The IC50 ([5]; ZF4, 48 h exposure, nominal, log10, read-out: logIC50 (log10 IC50;nom) NRf (converted)) was 34.7 µM, the IC50 ([5]; ZF4, 48 h exposure, nominal, read-out: IC50;nom NRf) was 34.3 µM and the IC50 [6] was 52.9 µM. The IC50 ([6]; 48 h, read-out: IC50;nom BCA) was 52.9 µM, the IC50 ([6]; 48 h, read-out: logIC50 (log10 IC50 (converted);nom) BCA) was 52.5 µM and the IC50 ([6]; read-out: LogIC50 (converted)) was 52.9 µM. It also gave an IC50 [7] of 22.8 µM, an IC50 ([7]; 48 h, read-out: IC50;nom NRa) of 22.8 µM and an IC50 ([7]; 48 h, read-out: logIC50 (log10 IC50 (converted);nom) NRa) of 22.9 µM. The IC50 ([7]; read-out: LogIC50 (converted)) was 22.8 µM, the AC50 [8] was 4.89 µM and the IC50 (ZF4 and ZFL cell lines; Danio rerio, read-out: Mean log IC50nom, mean of all cytotoxicity endpoints (without LDH) in ZF4 and ZFL, 48 h, log10 (converted)) was 56.2 µM. The “Mean log IC50nom” value (ZF4 and ZFL cell lines; mean of all cytotoxicity endpoints (without LDH) in ZF4 and ZFL, log10, listed as Feb) was -4.248 M, the IC50 ([9]; MTS - ZF4, log10 of IC50, read-out: LogIC50 (converted)) was 63.1 µM and the IC50 ([9]; MTS - ZF4, read-out: IC50) was 63.1 µM. For the same compound, the IC50 ([9]; ZF4, 48 h exposure, nominal, log10, read-out: logIC50 (log10 IC50;nom) MTS (converted)) was 63.1 µM, the IC50 ([9]; ZF4, 48 h exposure, nominal, read-out: IC50;nom MTS) was 63.1 µM and the IC50 [10] was 16.5 µM. It also gave an IC50 ([10]; 48 h, read-out: IC50;nom AB) of 16.5 µM, an IC50 ([10]; 48 h, read-out: logIC50 (log10 IC50 (converted);nom) AB) of 16.6 µM and an IC50 ([10]; read-out: LogIC50 (converted)) of 16.5 µM. For the same compound, the IC50 [11] was 130 µM, the IC50 ([11]; 48 h, read-out: IC50;nom ATP) was 130 µM and the IC50 ([11]; 48 h, read-out: logIC50 (log10 IC50 (converted);nom) ATP) was 129 µM. For the same compound, the IC50 ([11]; read-out: LogIC50 (converted)) was 130 µM, the IC50 [12] was 22.4 µM and the IC50 ([12]; 48 h, read-out: IC50;nom NRf) was 22.4 µM. The IC50 ([12]; 48 h, read-out: logIC50 (log10 IC50 (converted);nom) NRf) was 22.4 µM, the IC50 ([12]; read-out: LogIC50 (converted)) was 22.4 µM and the IC50 ([13]; NR-abs - ZF4, log10 of IC50, read-out: LogIC50 (converted)) was 37.6 µM. It also gave an IC50 ([13]; NR-abs - ZF4, read-out: IC50) of 37.6 µM, an IC50 ([13]; ZF4, 48 h exposure, nominal, log10, read-out: logIC50 (log10 IC50;nom) NRa (converted)) of 37.2 µM and an IC50 ([13]; ZF4, 48 h exposure, nominal, read-out: IC50;nom NRa) of 37.6 µM. For the same compound, the IC50 ([13]; ZF4 cell line, NRa endpoint, nominal, read-out: IC50;nom) was 16.8 µg/mL, the IC50 [14] was 60.4 µM and the IC50 ([14]; 48 h, read-out: IC50;nom MTS) was 60.4 µM. The IC50 ([14]; 48 h, read-out: logIC50 (log10 IC50 (converted);nom) MTS) was 60.3 µM, the IC50 ([14]; read-out: LogIC50 (converted)) was 60.4 µM and the IC50 [15] was 99 µM. It also gave an IC50 ([15]; 48 h, read-out: IC50;nom CFDA) of 99 µM, an IC50 ([15]; 48 h, read-out: logIC50 (log10 IC50 (converted);nom) CFDA) of 100 µM and an IC50 ([15]; read-out: LogIC50 (converted)) of 99 µM.
